The text below walks through data of ChEMBL document CHEMBL4699439, “Design and development of novel N-(pyrimidin-2-yl)-1,3,4-oxadiazole hybrids to treat cognitive dysfunctions” (Bioorg Med Chem, 2019).

The series is described as follows: Effective permeability of compound in PBS buffer at pH 7.4 at 25 ug/ml incubated for 20 hrs by PAMPA-BBB assay. (The PAMPA barrier holds no transporters, so it reflects passive diffusion.)

Compound `COc1cc2c(cc1OC)C(=O)C(CC1CCN(Cc3ccccc3)CC1)C2` (stereo unspecified) [DONEPEZIL] returned an apparent permeability (Papp) at 20 h, 25 ug/ml of 6.89 ×10⁻⁶ cm/s.

Broadly, the Papp is a coefficient for how fast a substance crosses the barrier. A high value points to fast passage.
